Experimental data: publication PMC9019556, “Molecular interactions of STAC proteins with skeletal muscle dihydropyridine receptor and excitation‐contraction coupling” (Protein Science : A Publication of the Protein Society, 2022)
No constants are given. Whether binding was seen depends on the method and setting. Binding calls can cover weak binding; strength is not graded here.

By UniProt entry, the sequences of proteins in these tests, tags left out. Where a name states a change or a piece, a line headed by the entry shows the natural chain unless it says otherwise.
UniProt P07293: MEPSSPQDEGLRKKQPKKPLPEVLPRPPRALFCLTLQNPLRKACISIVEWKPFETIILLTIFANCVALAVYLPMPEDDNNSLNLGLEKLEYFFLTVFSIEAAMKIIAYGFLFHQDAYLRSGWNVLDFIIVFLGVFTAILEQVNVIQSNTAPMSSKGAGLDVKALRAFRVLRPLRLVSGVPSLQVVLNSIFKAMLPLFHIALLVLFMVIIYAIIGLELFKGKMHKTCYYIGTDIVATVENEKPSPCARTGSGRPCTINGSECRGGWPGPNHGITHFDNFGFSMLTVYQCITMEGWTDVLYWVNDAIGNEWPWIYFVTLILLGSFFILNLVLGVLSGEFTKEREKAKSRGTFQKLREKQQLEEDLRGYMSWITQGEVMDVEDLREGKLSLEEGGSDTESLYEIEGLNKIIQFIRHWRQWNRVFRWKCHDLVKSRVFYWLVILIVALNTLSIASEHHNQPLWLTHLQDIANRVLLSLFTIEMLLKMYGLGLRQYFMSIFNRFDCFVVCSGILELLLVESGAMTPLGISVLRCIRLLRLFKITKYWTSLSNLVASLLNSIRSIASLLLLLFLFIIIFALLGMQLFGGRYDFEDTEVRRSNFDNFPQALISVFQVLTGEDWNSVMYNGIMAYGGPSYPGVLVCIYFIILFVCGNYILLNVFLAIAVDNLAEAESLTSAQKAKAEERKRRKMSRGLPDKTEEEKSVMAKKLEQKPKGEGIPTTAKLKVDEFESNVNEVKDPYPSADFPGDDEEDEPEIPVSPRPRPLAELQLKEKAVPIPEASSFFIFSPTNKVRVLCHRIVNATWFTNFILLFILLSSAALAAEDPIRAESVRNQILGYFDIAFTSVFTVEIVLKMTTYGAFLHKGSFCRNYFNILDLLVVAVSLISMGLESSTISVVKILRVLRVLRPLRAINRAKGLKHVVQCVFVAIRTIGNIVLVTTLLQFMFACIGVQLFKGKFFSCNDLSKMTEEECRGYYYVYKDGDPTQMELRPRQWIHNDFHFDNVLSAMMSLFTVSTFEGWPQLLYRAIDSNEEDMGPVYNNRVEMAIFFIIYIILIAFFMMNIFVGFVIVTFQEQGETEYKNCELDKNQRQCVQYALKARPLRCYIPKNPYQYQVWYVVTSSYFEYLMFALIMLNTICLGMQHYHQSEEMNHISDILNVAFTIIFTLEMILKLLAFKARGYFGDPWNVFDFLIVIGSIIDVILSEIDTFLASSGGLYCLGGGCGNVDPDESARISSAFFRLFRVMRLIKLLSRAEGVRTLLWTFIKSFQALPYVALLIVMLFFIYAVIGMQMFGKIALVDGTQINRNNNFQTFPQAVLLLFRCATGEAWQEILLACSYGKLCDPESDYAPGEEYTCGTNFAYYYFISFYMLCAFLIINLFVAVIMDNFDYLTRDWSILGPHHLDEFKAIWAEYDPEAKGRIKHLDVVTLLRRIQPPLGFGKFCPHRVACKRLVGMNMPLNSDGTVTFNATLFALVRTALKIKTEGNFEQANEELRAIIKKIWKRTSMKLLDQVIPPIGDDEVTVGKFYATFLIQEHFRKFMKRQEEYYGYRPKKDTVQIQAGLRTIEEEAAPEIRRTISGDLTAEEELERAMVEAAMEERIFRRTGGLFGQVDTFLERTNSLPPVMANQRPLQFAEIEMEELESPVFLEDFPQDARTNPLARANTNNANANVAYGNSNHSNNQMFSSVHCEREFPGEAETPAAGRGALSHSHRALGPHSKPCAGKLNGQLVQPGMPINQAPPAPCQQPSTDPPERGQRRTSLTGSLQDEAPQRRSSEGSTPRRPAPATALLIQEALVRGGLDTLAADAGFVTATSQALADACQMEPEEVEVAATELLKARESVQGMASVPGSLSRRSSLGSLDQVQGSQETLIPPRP

Target: full-length II–III loop of the skeletal muscle dihydropyridine receptor α1S subunit (UniProt P07293)
Experiment: NMR titration; 1H-15N HSQC of 0.17 mM 15N-labelled II–III loop titrated with STAC3SH3s up to 1:1; 27 mM NaH2PO4, 30 mM Na2HPO4, 200 mM KCl, pH 6.5; 5°C; peak intensities; both purified

binding: binds
B1: tandem SH3 domains of STAC3 (SH3 and cysteine-rich domain-containing protein 3) (domain or fragment, human)
chain: GFQQSHYFVALYRFKALEKDDLDFPPGEKITVIDDSNEEWWRGKIGEKVGFFPPNFIIRVRAGERVHRVTRSFVGNREIGQITLKKDQIVVQKGDEAGGYVKVYTGRKVGLFPTDFLEEI
notes: human STAC3, tandem SH3 domains (SH3_1 and SH3_2) at the C-terminal end; Used unlabelled (SPR, titrant in NMR) and 15N-labelled (NMR titration with the C3 peptide); also called STAC3SH3s
